# PubChem BioAssay AID590 (National Center for Advancing Translational Sciences (NCATS), 2007)
# Among all 59,000 compounds or so, about 6,500 (11%) were called active. Inconclusive results, whose numbers are uncertain, are shown with a selection of clear calls. Cut-off read from the data, not from the text of the source: active = max dye-equivalent concentration above about 10 nM; inconclusive = mostly about 1.1 nM to 9.6 nM; inactive = weaker than that.
# Experiment: qHTS Assay for Spectroscopic Profiling in A350 Spectral Region
# Conditions: Compound autofluorescence, 340/450 nm, Alexa 350 dye-equivalents; hits give high values
row,SMILES,max dye-equivalent concentration
1,COc1ccc(C(=O)c2ccc(N(C)C)cc2)c(OC)c1,inconclusive: 4.5 nM
2,O/N=C1\CCC\C1=C/c1ccco1,inconclusive: 1.3 nM
3,CCCNC(=O)c1ccc2c(c1)ncn2-c1ccccc1OC,inactive
4,CC1(C)Cc2ccccc2-c2nnc(SCc3ccc(C#N)cc3)n21,inactive
5,COc1ccc(C(=O)COC(=O)CCn2nnc(-c3cccs3)n2)cc1,inactive
6,Oc1cccc(-c2nc3ccccc3s2)c1,inactive
7,Fc1ccc2[nH]c3c(N4CCN(Cc5ccc6c(c5)OCO6)CC4)ncnc3c2c1,inconclusive: 6.5 nM
8,COc1ccc(-c2nnnn2C)cc1S(=O)(=O)NCc1ccccc1,inconclusive: 8 nM
9,COc1ccc(CCn2c(=N)c(C#N)cc3c(=O)n4ccccc4nc32)cc1,active: 31 nM
10,O=C(COc1ccc2c3c(c(=O)oc2c1)CCC3)NC1CCCCC1,active: 82 nM
11,Cn1c(SCC(=O)NCc2ccc3c(c2)OCO3)nnc1-c1cc2ccccc2cc1O,inconclusive: 6.9 nM
12,COc1ccc(CNC(=O)C2CC(=O)N(c3ccc(OCC(=O)N4C(C)CCCC4C)cc3)C2)cc1 (stereo not drawn),inactive
13,Cc1ccc(S(=O)(=O)Nc2ccc3c(c2)nc2n3CCN(Cc3ccccc3)C2)cc1,inconclusive: 5.7 nM
14,CCOC(=O)c1ccc(Nc2nc(C)cc(C)c2C#N)cc1,inconclusive: 6.3 nM
15,CCOC(=O)C1=C(C)NC2=C(C(=O)C(C(=O)OCC)C(c3ccco3)C2)C1c1ccccn1 (stereo not drawn),active: 650 nM
16,Cn1c(=O)c(-c2cccs2)nc2cnc(N3CCOCC3)nc21,inconclusive: 3.2 nM
17,CCC(C)[C@H](NC(=O)Nc1cccc(OC)c1)C(=O)OC (stereo partly drawn),inconclusive: 1.1 nM
18,Cc1ccc(-c2nn(-c3ccccc3)cc2CN(Cc2ccccc2)C(=O)CCC(=O)O)o1,inconclusive: 1.2 nM
19,COC(=O)C1=C(N)N(c2ccc(F)cc2)C2=C(C(=O)CCC2)C1c1ccc2c(c1)OCO2 (stereo not drawn),active: 43 nM
20,O=C(COC(=O)C1CCC1)NCc1ccccc1Cl,active: 11 nM

# Two entries drawn at random from the list so far, as already listed:
row,SMILES,max dye-equivalent concentration
10,O=C(COc1ccc2c3c(c(=O)oc2c1)CCC3)NC1CCCCC1,active: 82 nM
18,Cc1ccc(-c2nn(-c3ccccc3)cc2CN(Cc2ccccc2)C(=O)CCC(=O)O)o1,inconclusive: 1.2 nM

# (listing goes on)

row,SMILES,max dye-equivalent concentration
1,Cc1cccc(/N=C/c2c(O)n(-c3cc(Cl)ccc3N3CCOCC3)c(=O)c3ccccc23)n1,inconclusive: 9.3 nM
2,CC1Cc2ccccc2N1S(=O)(=O)c1ccc2c(c1)n(C)c(=O)c(=O)n2C (stereo not drawn),inactive
3,CCCN(CCC)CCc1cccc2c1CC(=O)N2,inactive
4,CCC(CC)C1C(C#N)=C(N)Oc2n[nH]c(C)c21 (stereo not drawn),inconclusive: 1.4 nM
5,CCN(CC)S(=O)(=O)c1ccc(NC(=O)Cn2c(=O)sc3ccccc32)cc1,inactive
6,COc1ccc(NC(=O)N2CCn3c2nc2ccccc23)cc1,inconclusive: 5.4 nM
7,CCOc1ccccc1C(=O)NCC(=O)OCC(=O)N1C(C)CCCC1C (stereo not drawn),inconclusive: 2.8 nM
8,O=C(Oc1ccc2c(c1)OCO2)c1cccs1,inactive
9,COc1cccc(Cn2c(=O)cnc3cnc(N4CCN(C)CC4)nc32)c1,inconclusive: 3.2 nM
10,Oc1[nH]c2ccccc2c1C1=NCCCC1,inconclusive: 1.3 nM
11,COc1cccc2[nH]c3c(N4CCCC(C)C4)ncnc3c12 (stereo not drawn),active: 38 nM
12,CCc1nc2ccccc2n(CCOCCOCCn2c(=O)c(CC)nc3ccccc32)c1=O,active: 45 nM
13,CCCCc1ccc(CC(=O)O)cc1,inactive
14,Cc1cc(NCCCn2ccnc2)n2ncc(-c3ccccc3)c2n1,inconclusive: 5.9 nM
15,O=C(c1cnc(N2CCN(c3ncccn3)CC2)c2ccccc12)N1CCN(c2ncccn2)CC1,inconclusive: 7.9 nM
16,Cc1cnc(CNc2ncncc2-c2ccc(C(=O)N(C)C)cc2)cn1,inactive
17,O=C(NCc1ccc2[nH]c3c(c2c1)CCCC3)N1CCOCC1,inconclusive: 3.5 nM
18,CCn1c(N)c(C(=O)Nc2ccccc2C(=O)OC)sc1=S,inconclusive: 1.1 nM
19,COc1ccc(-c2noc(CCC(=O)Nc3cccc(C)c3)n2)cc1,inconclusive: 6.7 nM
20,CCn1c(CSc2nc(C)cc(C)n2)nnc1SCC(=O)Nc1nc(-c2ccccc2)cs1,inconclusive: 2.8 nM

row,SMILES,max dye-equivalent concentration
1,C=CCn1c(=S)[nH]c2nc3c(cc2c1=O)COC(C)(C)C3,inconclusive: 3.5 nM
2,CC(c1ccco1)N(C(=O)c1ccc(S(=O)(=O)N2CCCCC2)cc1)c1ccccn1 (stereo not drawn),inconclusive: 1.3 nM
3,COC(=O)c1cc(Br)c(=O)n(Cc2cccnc2)c1,inactive
4,CCOc1ccc2nc(NC(=O)C(NS(=O)(=O)c3cccs3)C(C)C)sc2c1 (stereo not drawn),inconclusive: 1.2 nM
5,O=C(O)c1cccc(S(=O)(=O)Nc2ccc3oc(=O)sc3c2)c1,inactive
6,CCCCn1c(-c2ccccc2)nc2c(=O)n(C)c(=O)[nH]c21,inconclusive: 7.7 nM
7,O=C(CCC(=O)N1CCN(S(=O)(=O)c2ccccc2)CC1)NC1CCCc2ccccc21 (stereo not drawn),inactive
8,CN(C)CCCO[C@H]1[C@H]([C@H](O)CO)O[C@H]2OC(C)(C)O[C@@H]21,inconclusive: 5.5 nM
9,Cc1c(CNC(=O)c2cnn3c2NC(c2ccc(Br)cc2)CC3C(F)(F)F)cnn1C (stereo not drawn),inactive
10,COc1ccc2nc3c(cc2c1)c(NC(=O)C1CCCO1)nn3CC(C)C (stereo not drawn),active: 520 nM
11,O=C(OCC(=O)N1CCN(c2ccccc2)CC1)c1ccco1,inconclusive: 5.3 nM
12,CN(C)CCNC(=O)Cn1nc(-c2ccc(Cl)cc2)ccc1=O,inconclusive: 1.1 nM
13,COc1cc(NS(=O)(=O)c2ccc(Br)s2)cc(OC)c1,inactive
14,O=S(NCc1ccco1)C12CC3CC(CC(C3)C1)C2 (stereo not drawn),inactive
15,CC(=O)c1c(C(C)=O)c(C)n(CCCCn2c(C)c(C(C)=O)c(C(C)=O)c2C)c1C,inconclusive: 1.5 nM
16,CCN1C(=O)/C(=C2\C=Cc3ccccc3N2CC)OC1=S,inconclusive: 1.4 nM
17,FC(F)(F)c1cc(-c2ccco2)nc(NCc2ccco2)n1,inconclusive: 3.9 nM
18,O=C(Nc1ccccc1)N1CC2(CCN(S(=O)(=O)c3ccccc3)CC2)C1,inactive
